These results are taken from PMC12409219, “Binding kinetics, bias, receptor internalization and effects on insulin secretion in vitro and in vivo of a novel GLP‐1R/GIPR dual agonist, HISHS‐2001” (Diabetes, Obesity & Metabolism, 2025).

Chains of the proteins cited; added tags and fusions are not shown. Residues count along the entry.
UniProt P43220, residues 24-463: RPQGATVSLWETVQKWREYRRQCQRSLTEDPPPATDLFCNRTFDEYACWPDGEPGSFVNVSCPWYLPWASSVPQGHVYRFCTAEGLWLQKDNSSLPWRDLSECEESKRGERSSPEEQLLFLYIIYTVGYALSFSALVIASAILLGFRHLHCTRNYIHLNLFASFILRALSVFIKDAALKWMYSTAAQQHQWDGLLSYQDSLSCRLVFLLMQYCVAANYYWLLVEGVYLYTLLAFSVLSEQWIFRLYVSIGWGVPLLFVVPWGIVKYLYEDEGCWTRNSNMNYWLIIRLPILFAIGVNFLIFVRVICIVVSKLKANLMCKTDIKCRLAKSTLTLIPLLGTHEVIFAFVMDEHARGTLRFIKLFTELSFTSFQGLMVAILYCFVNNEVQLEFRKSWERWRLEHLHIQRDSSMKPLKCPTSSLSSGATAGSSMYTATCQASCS
UniProt P32121: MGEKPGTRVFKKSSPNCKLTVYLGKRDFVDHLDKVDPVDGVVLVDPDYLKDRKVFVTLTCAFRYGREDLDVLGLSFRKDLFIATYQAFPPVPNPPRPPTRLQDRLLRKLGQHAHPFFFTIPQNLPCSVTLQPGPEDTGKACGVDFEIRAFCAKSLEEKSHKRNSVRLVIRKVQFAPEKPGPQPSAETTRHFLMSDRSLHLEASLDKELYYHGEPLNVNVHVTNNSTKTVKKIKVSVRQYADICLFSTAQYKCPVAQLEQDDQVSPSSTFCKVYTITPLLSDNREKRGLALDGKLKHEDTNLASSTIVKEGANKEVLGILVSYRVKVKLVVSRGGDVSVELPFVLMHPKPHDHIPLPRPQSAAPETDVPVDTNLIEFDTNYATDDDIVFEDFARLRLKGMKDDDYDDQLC

Results are given in words; binding and its absence hold for the method and conditions named. Binding seen in cells or lysates may run through a third protein. Some results given as binding are weak or reduced against the parent protein; the word gives no strength.

The target of the assay is GLP‐1R of DiscoverX GLP‐1R‐β‐arrestin 2 cells (UniProt P43220). Kind of assay: split reporter; DiscoverX (PathHunter) GLP‐1R‐β‐arrestin 2 cells; 30‐min stimulation with semaglutide, HISHS‐2001 or tirzepatide in serum‐free medium with 0.1% BSA; β‐arrestin detection reagents, luminescence; normalised to the maximal fitted semaglutide response.

On to “β‐arrestin 2 of DiscoverX GLP‐1R‐β‐arrestin 2 cells (from UniProt P32121 1-409)”, for which the binding entry is listed as “binds”.
